These are yes or no findings as the source states them, for the method shown. In cells and extracts the contact can be indirect. Some entries that bind do so weakly or less than the wild type. For some of these results: Sequences can lack the tags named with a protein.
T1: Myc-RLIM (RING finger LIM domain-binding protein, Myc tagged) (UniProt Q9NVW2)
T1 sequence: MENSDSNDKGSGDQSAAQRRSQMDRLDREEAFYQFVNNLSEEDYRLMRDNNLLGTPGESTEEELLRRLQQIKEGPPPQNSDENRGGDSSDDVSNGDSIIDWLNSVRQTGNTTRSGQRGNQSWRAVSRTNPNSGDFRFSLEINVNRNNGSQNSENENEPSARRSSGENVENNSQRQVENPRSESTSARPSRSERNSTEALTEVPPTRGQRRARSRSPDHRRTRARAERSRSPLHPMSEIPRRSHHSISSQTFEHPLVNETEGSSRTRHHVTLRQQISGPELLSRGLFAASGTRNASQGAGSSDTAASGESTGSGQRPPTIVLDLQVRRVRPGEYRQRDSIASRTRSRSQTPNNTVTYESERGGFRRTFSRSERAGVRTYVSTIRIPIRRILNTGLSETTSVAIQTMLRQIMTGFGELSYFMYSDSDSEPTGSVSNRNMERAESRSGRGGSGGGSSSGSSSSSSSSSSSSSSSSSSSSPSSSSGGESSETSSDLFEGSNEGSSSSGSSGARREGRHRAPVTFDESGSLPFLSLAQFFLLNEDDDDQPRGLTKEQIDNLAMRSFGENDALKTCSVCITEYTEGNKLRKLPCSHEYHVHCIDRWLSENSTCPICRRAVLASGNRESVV

T2: Flag-MIZ1 (MYC-interacting zinc-finger protein 1, Flag tagged) (UniProt Q13105)
T2 sequence: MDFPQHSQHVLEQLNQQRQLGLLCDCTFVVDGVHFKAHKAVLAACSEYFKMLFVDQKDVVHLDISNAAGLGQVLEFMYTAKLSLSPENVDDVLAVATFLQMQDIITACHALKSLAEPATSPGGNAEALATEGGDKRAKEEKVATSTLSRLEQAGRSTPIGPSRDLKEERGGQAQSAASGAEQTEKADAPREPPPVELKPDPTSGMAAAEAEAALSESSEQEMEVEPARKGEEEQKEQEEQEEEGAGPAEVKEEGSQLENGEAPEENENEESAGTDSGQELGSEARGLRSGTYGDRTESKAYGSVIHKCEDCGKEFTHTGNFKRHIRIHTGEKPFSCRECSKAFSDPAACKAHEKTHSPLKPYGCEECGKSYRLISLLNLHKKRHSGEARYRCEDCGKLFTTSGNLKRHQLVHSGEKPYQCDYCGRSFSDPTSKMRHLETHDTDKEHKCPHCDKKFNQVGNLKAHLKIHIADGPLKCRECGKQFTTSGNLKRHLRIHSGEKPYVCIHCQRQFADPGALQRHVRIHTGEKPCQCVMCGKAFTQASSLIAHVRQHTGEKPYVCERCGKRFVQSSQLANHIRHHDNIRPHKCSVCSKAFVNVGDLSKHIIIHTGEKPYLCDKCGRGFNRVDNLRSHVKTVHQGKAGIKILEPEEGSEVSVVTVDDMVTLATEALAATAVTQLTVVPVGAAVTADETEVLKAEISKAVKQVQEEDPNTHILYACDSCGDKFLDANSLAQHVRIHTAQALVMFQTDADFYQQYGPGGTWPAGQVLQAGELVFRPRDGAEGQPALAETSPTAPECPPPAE

T3: endogenous RLIM (human (endogenous in SK-Hep1 and HepG2)) (UniProt Q9NVW2)
T3 sequence: T1 sequence

B1: Flag-MIZ1 (MYC-interacting zinc-finger protein 1, Flag tagged) (protein, UniProt Q13105 1-803)
chain: T2 sequence
B2: Myc-RLIM (RING finger LIM domain-binding protein, Myc tagged) (protein, UniProt Q9NVW2 1-624)
chain: T1 sequence
B3: endogenous MIZ1 (protein, UniProt Q13105 1-803)
chain: T2 sequence
B4: MIZ1 C terminal region (637-803aa) truncation fragment (domain or fragment, UniProt Q13105 637-803)
chain: HQGKAGIKILEPEEGSEVSVVTVDDMVTLATEALAATAVTQLTVVPVGAAVTADETEVLKAEISKAVKQVQEEDPNTHILYACDSCGDKFLDANSLAQHVRIHTAQALVMFQTDADFYQQYGPGGTWPAGQVLQAGELVFRPRDGAEGQPALAETSPTAPECPPPAE

Assays:
[1] = target: T1, Myc-RLIM (RING finger LIM domain-binding protein, Myc tagged); assay: co-IP; HEK 293T cells co-transfected with tagged constructs, lysed 48 h after transfection (20 mM Tris-HCl pH 7.4, 2 mM EDTA, 25 mM NaF, 1% Triton X-100); IP with Myc, Flag or HA antibody and protein A/G beads overnight at 4 °C; immunoblotting; in Figure 4E with or without HA-RLIM (1 or 2 μg)
[2] = target: T2, Flag-MIZ1 (MYC-interacting zinc-finger protein 1, Flag tagged); assay: as above
[3] = target: T3, endogenous RLIM (human (endogenous in SK-Hep1 and HepG2)); assay: co-IP; endogenous proteins; IP of endogenous RLIM from SK-Hep1 and HepG2 lysates, or of endogenous c-MYC from SK-Hep1 cells infected with RFP or RLIM adenovirus or transfected with scramble or RLIM siRNAs; protein A/G beads overnight at 4 °C; immunoblotting

binding [1] | further results | Binder
binds |  | B1
 | binding [2]: binds | B2
 | binding [3]: binds | B3
binds |  | B4
